Data as given in the supplement of paper PMC8728848.
Some of the results follow.

How the values were obtained:
Experiment in all cases: glycan array binding signal (z-score within array); higher = stronger binding
Conditions in all cases: glycan notation: IUPAC condensed, linker removed
[1] = molecular target: Man(a1-2)Man(a1-3)[Man(a1-2)Man(a1-6)]Man(a1-6)[Man(a1-2)Man(a1-2)Man(a1-3)]Man
How it was run: (§1)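 Columns mapping to the same glycan were averaged after glycan names were converted to IUPAC-condensed notation. The data come from 3228 arrays in the Consortium for Functional Glycomics database, limited to those with an available protein sequence. Binding is reported as a within-array Z-score averaged across arrays of one protein sequence and across linkers.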

[2] = molecular target: Man(a1-2)Man(a1-3)[Man(a1-2)Man(a1-6)]Man(a1-6)[Man(a1-2)Man(a1-2)Man(a1-3)]Man(b1-4)GlcNAc(b1-4)GlcNAc
How it was run: as §1

[3] = molecular target: Man(a1-2)Man(a1-3)[Man(a1-6)]Man(a1-6)[Man(a1-2)Man(a1-3)]Man(b1-4)GlcNAc(b1-4)GlcNAc
How it was run: as §1

[4] = molecular target: Man(a1-2)Man(a1-6)[Man(a1-3)]Man(a1-6)[Man(a1-2)Man(a1-2)Man(a1-3)]Man
How it was run: as §1

[5] = molecular target: Man(a1-2)Man(a1-6)[Man(a1-3)]Man(a1-6)[Man(a1-2)Man(a1-2)Man(a1-3)]Man(b1-4)GlcNAc(b1-4)GlcNAc
How it was run: as §1

[6] = molecular target: Man(a1-3)[Man(a1-6)]Man
How it was run: as §1

[7] = molecular target: Man(a1-3)[Man(a1-6)]Man(a1-6)[Man(a1-2)Man(a1-3)]Man(b1-4)GlcNAc(b1-4)GlcNAc
How it was run: as §1

[8] = molecular target: Man(a1-3)[Man(a1-6)]Man(a1-6)[Man(a1-3)]Man
How it was run: as §1

[9] = molecular target: Man(a1-3)[Man(a1-6)]Man(a1-6)[Man(a1-3)]Man(b1-4)GlcNAc(b1-4)GlcNAc
How it was run: as §1

[10] = molecular target: Man(a1-3)[Man(a1-6)]Man(b1-4)GlcNAc(b1-4)GlcNAc
How it was run: as §1

[11] = molecular target: Man(a1-3)[Man(a1-6)]Man(b1-4)GlcNAc(b1-4)[Fuc(a1-6)]GlcNAc
How it was run: as §1

[12] = molecular target: Man(a1-6)Man
How it was run: as §1

[13] = molecular target: Man(b1-4)GlcNAc
How it was run: as §1

[14] = molecular target: MurNAc(b1-4)GlcNAc
How it was run: as §1

[15] = molecular target: Neu5Ac(a2-3)Gal
How it was run: as §1

[16] = molecular target: Neu5Ac(a2-3)Gal(b1-3)GalNAc
How it was run: as §1

[17] = molecular target: Neu5Ac(a2-3)Gal(b1-3)GalNAc(b1-3)Gal(a1-4)Gal(b1-4)Glc
How it was run: as §1

[18] = molecular target: Neu5Ac(a2-3)Gal(b1-3)GalNAc(b1-4)[Neu5Ac(a2-3)]Gal(b1-4)Glc
How it was run: as §1

[19] = molecular target: Neu5Ac(a2-3)Gal(b1-3)GalNAc(b1-4)[Neu5Ac(a2-8)Neu5Ac(a2-3)]Gal(b1-4)Glc
How it was run: as §1

[20] = molecular target: Neu5Ac(a2-3)Gal(b1-3)GalNAc6S
How it was run: as §1

[21] = molecular target: Neu5Ac(a2-3)Gal(b1-3)GlcNAc
How it was run: as §1

[22] = molecular target: Neu5Ac(a2-3)Gal(b1-3)GlcNAc(b1-2)Man
How it was run: as §1

[23] = molecular target: Neu5Ac(a2-3)Gal(b1-3)GlcNAc(b1-2)Man(a1-3)[GlcNAc(b1-4)][Neu5Ac(a2-3)Gal(b1-3)GlcNAc(b1-2)Man(a1-6)]Man(b1-4)GlcNAc(b1-4)GlcNAc
How it was run: as §1

[24] = molecular target: Neu5Ac(a2-3)Gal(b1-3)GlcNAc(b1-2)Man(a1-3)[Neu5Ac(a2-3)Gal(b1-3)GlcNAc(b1-2)Man(a1-6)]Man(b1-4)GlcNAc(b1-4)GlcNAc
How it was run: as §1

[25] = molecular target: Neu5Ac(a2-3)Gal(b1-3)GlcNAc(b1-3)Gal(b1-3)GlcNAc
How it was run: as §1

[26] = molecular target: Neu5Ac(a2-3)Gal(b1-3)GlcNAc(b1-3)Gal(b1-4)GlcNAc
How it was run: as §1

[27] = molecular target: Neu5Ac(a2-3)Gal(b1-3)GlcNAc(b1-3)GalNAc
How it was run: as §1

[28] = molecular target: Neu5Ac(a2-3)Gal(b1-3)GlcNAc(b1-4)Gal(b1-4)Glc
How it was run: as §1

[29] = molecular target: Neu5Ac(a2-3)Gal(b1-3)GlcNAc(b1-6)GalNAc
How it was run: as §1

[30] = molecular target: Neu5Ac(a2-3)Gal(b1-3)GlcNAc6S
How it was run: as §1

B1: PX14343F-bfa-562-20-562 (Bacteroides fragilis) (protein)
chain: CDDFLDSFPQDTVTNENFWKSKEDADKVLVDIYASLLPKDAIFFDEAMSDNAYLVWDWWGGAQQVANGSYTTSGEIPTNRWNGSYEVIRKCWFLLEGIEKIEDISEQDKNKIIGETYFMLAYNYYVLTSYFGDVPLVTKTLAIPESKQLVRTPKAEVVDYAINKLKEAAVMLEGLSQEKGRVTADACRFLIARMYLYNGDYSNVLETVKLLEGKYQLYREGDTPYEDLFSGVAENSCEVILSVVCDKRVGEIYTSHGGNGIMLLKGITGEDPYRGVTPSGSLVDAYPMADGRLIHEAGSSYDPKKPYEGRDPRFYQSIVYPTGQIKYLDVETGTVKERLYDPEDPTTVPEHQYNYSQPSATGYMWNKYIDYSVYAMNSVWDCTNDIIVFRYADVLLMKAEALLQTKGESAKEEVCNLIDQLRDRCSCGRVHRENYNSKDELMELLKNERRIELANEGLRYMDLIRWKDAEKNTIVTGVGLTGQMYGAYMRKDGVGKDDKTVDVDNTPRRYIETRYFNASKGYLFPIPQKERDLNPNLTQNPNW
What does the source list for B1?
glycan array binding signal (z-score) [1]: 0.617; glycan array binding signal (z-score) [2]: -0.697; glycan array binding signal (z-score) [3]: -0.122; glycan array binding signal (z-score) [4]: -0.323; glycan array binding signal (z-score) [5]: -0.609; glycan array binding signal (z-score) [6]: 0.832; glycan array binding signal (z-score) [7]: 0.079; glycan array binding signal (z-score) [8]: 0.119; glycan array binding signal (z-score) [9]: 1.02; glycan array binding signal (z-score) [10]: -0.476; glycan array binding signal (z-score) [11]: -0.328; glycan array binding signal (z-score) [12]: -0.282; glycan array binding signal (z-score) [13]: 0.146; glycan array binding signal (z-score) [14]: -0.093; glycan array binding signal (z-score) [15]: -0.6; glycan array binding signal (z-score) [16]: -0.546; glycan array binding signal (z-score) [17]: -0.68; glycan array binding signal (z-score) [18]: -0.166; glycan array binding signal (z-score) [19]: -0.5; glycan array binding signal (z-score) [20]: -0.506; glycan array binding signal (z-score) [21]: -0.389; glycan array binding signal (z-score) [22]: -0.734; glycan array binding signal (z-score) [23]: -1.07; glycan array binding signal (z-score) [24]: -0.333; glycan array binding signal (z-score) [25]: -0.857; glycan array binding signal (z-score) [26]: 0.353; glycan array binding signal (z-score) [27]: -0.209; glycan array binding signal (z-score) [28]: -0.046; glycan array binding signal (z-score) [29]: 1.15; glycan array binding signal (z-score) [30]: -0.149
